In all, about 31,000 sequences went through this assay and about 1,400 (4.5%) were called active.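 How the source made its calls: active means median seed-adjusted z-score above 1 or below -1; inactive means the rest.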 This is one part of the list.

The assay can be described thus: Novel Modifiers of Survival Motor Neuron (SMN) Protein: Gene Identification via Genome-wide siRNA Screen.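 Further: luminescence tracks full-length SMN protein made from the SMN2 reporter.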 To be noted: HEK293T SMN2-luciferase reporter, siRNA knockdown, 72 h; actives lie on both sides. An outline of the steps: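 Each of three siRNAs per gene is reverse-transfected (1 pmol) into reporter HEK293T cells whose luciferase output tracks SMN protein level. After 72 h culture, ONE-Glo luminescence is control-normalized, log10-transformed and MAD-standardized; Common Seed Analysis deprioritizes seed-driven hits.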
Background: In a reporter assay the amount or activity of a reporter protein is the signal.
Regarding GGACCGCUGUUGUUCCAUUTT against ZNF217, the median seed-adjusted z-score was inactive: -0.872.

Regarding CAUCAUCACAUGGAACGAATT against ACVR2B, the median seed-adjusted z-score is inactive: 0.824. With CUAUGAUCUCAACCAAAUATT against CD248, the median seed-adjusted z-score is inactive: -0.0191.

For CUCCUAUGGUUGGUCCUUUTT against CACNG3, the median seed-adjusted z-score is inactive: -0.189. Consider CAACACCUCCAGAAUACAATT against CDR2, for which the median seed-adjusted z-score was inactive: -0.37. Next, GCACUCCCAAGAUUGAUAATT against RBPJ: inactive: -0.452; GCUAUAAUCCUUAUGCGUATT against PDCD6IP: inactive: 0.

As to GUAUCAUCACGUGGGCAAATT against PGRMC1, the median seed-adjusted z-score was inactive: 0.124. Take GGGAAUCAGAUAGAACUUATT against SDHC: the median seed-adjusted z-score was inactive: 0.00895. Take GCGAAAGUCUUAAUAACUATT against PCDHGA6: the median seed-adjusted z-score was inactive: 0.0559. Regarding GCUUAACGACUGCUAUAAATT against AKAP6, the median seed-adjusted z-score is inactive: -0.0978. Consider GCGAGGCAGUUUAUGAGUUTT against CACNA1G, for which the median seed-adjusted z-score was inactive: 0.436. With UCACCUUUCUGUCAGCGAATT against PCDHGC5, the median seed-adjusted z-score was inactive: -0.0264. The same measure for CCAGCACUAAGGAAGCCCATT against PLIN: inactive: 0.166; for CAAAGAUUCUAGAGGACAATT against PDHB: inactive: -0.478. Consider AGUUCGACCUCUACACCAATT against MIOX, for which the median seed-adjusted z-score was inactive: 0.14. On to GGAGCAAUACAGACCAAGATT against ABCC8, for which the median seed-adjusted z-score is inactive: 0.24. Regarding GCAACACGUUUGAAAUGAATT against ETV6, the median seed-adjusted z-score is inactive: 0.0216. The same measure for CUUGCGCAGUGGAAAAUGATT against TRAK1: inactive: 0.298; for GGGAAGCACUGGUCGAAGATT against DTD1: active: -1.58. For GACGGUCCAUGAUGCUAUATT against SLC26A4, the median seed-adjusted z-score is inactive: 0.274. Next, CUCUGACUCUUGCAACUGATT against CCT4: inactive: -0.413; GGAGUCAGAUCUUCGUAAATT against TJP2: inactive: 0.0668.

As to GCUUCACUGAUACCCGGAATT against EEF2, the median seed-adjusted z-score is inactive: -0.159. For CCAUUAUCGCUGUCUUCUATT against CXCR7, the median seed-adjusted z-score is inactive: -0.511. Take GAACAGGAUUGGUCAGCUATT against GGA2: the median seed-adjusted z-score was inactive: -0.142. Turning to GCCUGUCCUUUGUAAUGCUTT against CYP8B1, the median seed-adjusted z-score was inactive: 0. On to GGGUACACCUAUCACAACATT against PCDH15, for which the median seed-adjusted z-score is inactive: -0.712. Next, GCCCUAGAAAGGUCACUGATT against AKR1CL1: inactive: 0.488; GGUACGAGAUGACAAGACATT against PPFIA1: inactive: 0.312. The same measure for CCACUACUCUUUGUCCAUATT against TRIM6: inactive: -0.137.

As for GCACUGGGUAGGUUGCAGATT against NT5C1A, the median seed-adjusted z-score is inactive: -0.448.

For the sequence CCAUAUUGGGAUGAUAUUUTT against CAMKV, the median seed-adjusted z-score was inactive: -0.193. As for GGAGGCUGCAGAUCUGGUATT against NDUFS7, the median seed-adjusted z-score is inactive: -0.386. The same measure for CUAGUUCGAUGGAUAAGUATT against PTPN13: inactive: 0.0682. The same measure for AGAAGUGUCUGUAUCAGAATT against GEM: inactive: 0.018; for CAAGGAUGGUAAUAGCUGUTT against POLG: inactive: 0. In the case of GCUCCUUCCUGAGAGCAAATT against PYCR1, the median seed-adjusted z-score was inactive: -0.171. For the sequence GCAUGCAGCUUCUACCGUUTT against NOP58, the median seed-adjusted z-score was inactive: 0.101. GGAUGUAGGCUAUCCGGAATT against USP36: the median seed-adjusted z-score is inactive: -0.147.

In the case of CCGCUGAACCUGUUGAAGATT against SGMS2, the median seed-adjusted z-score was inactive: -0.492. Next, CCAGCUUUCGAAAAUCAUUTT against USF2: inactive: 0.352. The same measure for CUAUGAAACUGGGAGUAAATT against CHMP5: inactive: 0; for GCUUUUAUCCUAGACAUCATT against PAQR8: inactive: 0. CAACCCUUCUCUGUCCAUUTT against UCN: the median seed-adjusted z-score is inactive: -0.472. Consider CCGAAGAACCUGAAUUGGATT against ZDHHC23, for which the median seed-adjusted z-score is inactive: -0.536. On to GCUUCGCAUUUGAUGGAAATT against IL20RA, for which the median seed-adjusted z-score was inactive: -0.646. Next, UCACAUAUCUCGACGGCUATT against ANP32A: inactive: 0.377; GGGCGAAGCUUCAACCAGATT against ZNF498: inactive: -0.476. Next, GAGACUAUGUAAAGAAAGATT against CASP4: inactive: -0.564; CCUGUUCUGUGACAACCAUTT against EDC4: inactive: 0; ACGCUGUCCUGGUUCUUCATT against DGAT2L3: inactive: 0.247.

Turning to AGAAUGCUCUCAUCACUCATT against POMT1, the median seed-adjusted z-score is inactive: 0.327. The same measure for GAAGAUAUUGGAGACACAGTT against NUDT6: inactive: 0.281; for CCCGGGUCAUCAACUCUUATT against GGA3: inactive: -0.239; for GGAAGUACGUGGUAUGCAATT against PRL: inactive: 0.

In the case of GCAGUGUCCUGAGUACAGATT against CHFR, the median seed-adjusted z-score was inactive: -0.673.

With UGAUCAUGCUGCUAGGCAATT against RAB37, the median seed-adjusted z-score was inactive: 0.0678. Next, GGCUAAGCCUCAAAAUAAATT against ABCF1: inactive: -0.221; CAGAGUGUAUUCGACUUUATT against MED13: inactive: -0.469; GCAAGACAGCUGUCAAGAATT against FIGLA: inactive: -0.064. Consider GCUACUAUGCUGAAGAUCATT against CDH18, for which the median seed-adjusted z-score was inactive: 0.21.

Consider CUUCAUAAUUGAUCCACGATT against PCDH18, for which the median seed-adjusted z-score was inactive: -0.132.

Take GCGACACCCAGAACAAAGATT against DPEP1: the median seed-adjusted z-score was inactive: -0.886.

With GCGACGCUGGGUCUACUAUTT against S1PR4, the median seed-adjusted z-score is inactive: 0.0951. For GAUUCAAUCAUGUAAGCUUTT against RALGPS2, the median seed-adjusted z-score is inactive: 0.0124. The same measure for AAACUUGCCUGAGUACAAATT against KCNH3: inactive: -0.509. The same measure for GAGGAAAAACUGUUCCGCATT against HOMER3: inactive: 0.148; for GGACUAUUACAAAUCAAGATT against FLT3: inactive: 0.418.

Take CAGAAAUUCCGGGUAGAUATT against FOSL2: the median seed-adjusted z-score is inactive: -0.372.

In the case of CAACAUACAUCUUACCCAUTT against ZFAND1, the median seed-adjusted z-score is inactive: -0.272.

With GAAUUCACAUCGUGAUGAATT against LSM5, the median seed-adjusted z-score was inactive: -0.661. Regarding GGAGCAGCAAUAUCCAGAUTT against PRDM9, the median seed-adjusted z-score is inactive: -0.15. CGUCCUAAUCUCAAUCUUATT against CD200: the median seed-adjusted z-score is inactive: -0.0135. The same measure for GACAUACAAUGUGGACAGATT against ALPI: inactive: 0. Next, GCUAAGAAGCGAUCGCUGATT against SLC22A14: inactive: 0.215; GCCUAACAUCUUCUGGAAATT against SLC6A5: inactive: -0.204; CAACCUCAGAUGACAUUAATT against DNAJC5: inactive: -0.0844. GCACAGUACUGGUCAGUAUTT against NUP107: the median seed-adjusted z-score was inactive: -0.692. As for CGAAGUUUCGAUUUGAUUATT against B3GNT6, the median seed-adjusted z-score was inactive: 0.00618. As for GAACUAUAAGAAUCUAGUUTT against ZNF559, the median seed-adjusted z-score is inactive: -0.0208. The same measure for GCAGAAGUGUUUACAAGCUTT against RGN: inactive: 0.132. Next, GCUUUUCGGGAAUCACGAATT against LOC81691: inactive: -0.285; GGAUGUAAGCCUGACCAUATT against ZNF784: inactive: 0.291. With CCCACAAGACGGUUCAGGATT against CLDN22, the median seed-adjusted z-score was inactive: 0. The same measure for GAGUCACAUUUGAGGUUCATT against CSF2RA: inactive: -0.227. With CGGUUGCGUUUUAAUCGGATT against SDCCAG10, the median seed-adjusted z-score was inactive: -0.465. Next, CCACGUGACUAAUCCGAAATT against SLAMF6: inactive: 0.0115; GAAGAUCAGUACUACAGCATT against TTC6: inactive: 0.234; GACUUGUCGUCUUUCCAAUTT against ZFYVE21: inactive: -0.186. In the case of GAGCCUGACUGAAACGAUUTT against CDR2, the median seed-adjusted z-score was inactive: -0.37. On to CAUAGUAAAUAGAGGGAUATT against PNPLA8, for which the median seed-adjusted z-score is inactive: 0.0576.

For AGAAGAUCCUGACCUUUAATT against MAPK4, the median seed-adjusted z-score is inactive: 0.235. Next, CAAGCGAGUUUAUUCCUAATT against PAN3: inactive: 0.349. The same measure for GCGAAACCCUAUCCUCAAATT against ARHGEF11: inactive: -0.525; for GCAUGACCCUCACCUCUAUTT against TGFBI: inactive: 0; for GCAUUUACUCGCUCUUCAATT against KCNK12: active: 1.04. Next, GGGAUAAAUUUGACGUGGATT against SPAG1: inactive: 0.413. Turning to CGAGGAAUGUGAUAAGGGATT against ZFP112, the median seed-adjusted z-score was inactive: -0.449. In the case of GAAAGAAACAUCACCGUGATT against RNF150, the median seed-adjusted z-score was inactive: 0.478. The same measure for CGAUAAGAUCAAUUCGGAATT against MTMR10: inactive: 0.144; for CGUUAUGUACGUGAUCUAATT against TPTE: inactive: 0.213; for GCAUUGUUUCUAAGAACUUTT against HSPB8: inactive: 0.207. For CGCAGGUACUUGGUAAUCATT against ZC3H7A, the median seed-adjusted z-score was inactive: 0.208. The same measure for CAAUGACCCUGCUAUACCATT against ALOX15B: inactive: 0.156; for CCAACAUCUCAGCCGUGAATT against DAPK3: inactive: -0.105. Take GGCCUCUGUUCAAUACUGATT against POLD3: the median seed-adjusted z-score was inactive: -0.161.

For the origin of these results see PubChem BioAssay AID1347426 (Functional Genomics Laboratory (NCATS/FGL), 2020).
